The source of these data is PubChem BioAssay AID248 (DTP/NCI, 2004).

The list does not hold the whole screen: it is rich in T/C values a quarter to a half above the control, in often repeated tests (any T/C) and in doses without a T/C. Other doses and runs of a compound stand elsewhere. T/C: endpoint of the treated group in % of that of the vehicle group. Some entries give survivors of the animals treated and no T/C: the source files T/C as zero there, which appears to mark a toxic dose or a test without result, not a measured value. Some doses without a T/C left all or most animals alive at the check, yet need not have been tolerated: the source hardly ever lists a survival T/C far under the control, and the zero likely stands for such cases as well. Survivors were counted at the toxicity check, usually on the fifth day, unless a day is given; later deaths do not show. Schedule codes are those of the source, read here as Q, the interval in days (D) or hours (H), X, the number of doses. Some doses were run more than once; the results are listed from low to high. For survival time, this PubChem deposit counts one and a half times the control or more as active, and values a quarter to a half above the control carry no call in these data; other NCI protocols may use other cut-offs.

The subject of the experiment is L1210 leukemia ip in BDF1 mice, survival T/C. The experiment in a line: NCI In Vivo Anticancer Drug Screen. Data for tumor model L1210 Leukemia (intraperitoneal) in B6D2F1 (BDF1) mice. Conditions: T/C endpoint: mean survival time, higher T/C = longer survival.
Setting [1] is: dose: 400.0 mg/kg/injection, schedule: Q01DX001 (ip), vehicle: saline.
Where [2] appears, read: dose: 100.0 mg/kg/injection, schedule: Q04DX002 (ip), vehicle: Klucel (hydroxypropylcellulose) (HPC).
[3] abbreviates: dose: 200.0 mg/kg/injection, schedule: Q01DX009 (ip), vehicle: Klucel (hydroxypropylcellulose) (HPC).
[4] abbreviates: dose: 400.0 mg/kg/injection, schedule: Q04DX003 (ip), vehicle: Klucel (hydroxypropylcellulose) (HPC).
The mark [5] stands for this setting: dose: 300.0 mg/kg/injection, schedule: Q01DX001 (ip), vehicle: other.
The mark [6] stands for this setting: dose: 100.0 mg/kg/injection, schedule: Q04DX003 (ip), vehicle: carboxymethylcellulose (CMC).
[7] abbreviates: dose: 400.0 mg/kg/injection, schedule: Q01DX001 (ip), vehicle: Klucel (hydroxypropylcellulose) (HPC).
The mark [8] stands for this setting: dose: 200.0 mg/kg/injection, schedule: Q01DX001 (ip), vehicle: Klucel (hydroxypropylcellulose) (HPC).

For `CC(C)(C)CC(C)(C)c1ccc(OCCOc2ccc(C(=O)O)cc2N)cc1`, under setting [1], the survivor count was 6 of 6.

With `Cc1ccc(N=C=C(c2ccc(Cl)cc2)c2ccc(Cl)cc2)cc1`, the survivor count was 0 of 3 (dose: 12.5 mg/kg/injection, schedule: Q01DX009 (ip), vehicle: DMSO); 1 of 3 (dose: 25.0 mg/kg/injection, schedule: Q01DX009 (ip), vehicle: DMSO); 0 of 3 (dose: 50.0 mg/kg/injection, schedule: Q04DX002 (ip), vehicle: DMSO); 0 of 3 (dose: 100.0 mg/kg/injection, schedule: Q04DX002 (ip), vehicle: DMSO); 0 of 3 (dose: 200.0 mg/kg/injection, schedule: Q04DX002 (ip), vehicle: DMSO); 0 of 3 (dose: 400.0 mg/kg/injection, schedule: Q04DX002 (ip), vehicle: DMSO).

As to `CN(C)C1CCC(/C=C(\C#N)C2CCC([N+](=O)[O-])CC2)CC1` (stereo not drawn), under setting [2], the T/C is 126 % of control.

`O=[N+]([O-])c1ccc(N2CCC(CCCC3CCN(c4ccc([N+](=O)[O-])cc4[N+](=O)[O-])CC3)CC2)c([N+](=O)[O-])c1`: the survivor count reads like this: under setting [3], 6 of 6; (dose: 400.0 mg/kg/injection, schedule: Q01DX009 (ip), vehicle: Klucel (hydroxypropylcellulose) (HPC)) 0 of 6.

In the case of `CC(C)=CC(=O)NC(=O)NS(=O)(=O)c1ccc(C)cc1`, under setting [3], the survivor count is reported as 6 of 6. Also, under setting [4], the T/C was 125 % of control.

Consider `CC(C)CC(CC(C)C)NCC(C)OC(=O)c1ccc(N(C)C)cc1` (stereo not drawn), for which the survivor count under setting [5] was 0 of 5.

For `O=C(Oc1ccc([N+](=O)[O-])cc1)c1cccc(S(=O)(=O)F)c1`, under setting [6], the survivor count is reported as 1 of 1.

Turning to `O=C(O)C(Oc1ccc(Cl)cc1Cl)C(Oc1ccc(Cl)cc1Cl)C(=O)O` (stereo not drawn), the T/C is, setting by setting: under setting [2], 144 % of control; (dose: 200.0 mg/kg/injection, schedule: Q04DX002 (ip), vehicle: Klucel (hydroxypropylcellulose) (HPC)) 136 % of control.

In the case of `CCCCCCCCN(NC(=O)c1ccccc1)S(=O)(=O)c1ccccc1`, the survivor count was 3 of 6 under setting [6]; 0 of 3 and 0 of 6 (dose: 200.0 mg/kg/injection, schedule: Q01DX009 (ip), vehicle: carboxymethylcellulose (CMC)).

As to `CCCCCCCCP(=O)(CCCC)CCCCCCCC`, the survivor count runs as follows: (dose: 200.0 mg/kg/injection, schedule: Q01DX001 (ip), vehicle: saline with Tween-80) 0 of 6; (dose: 400.0 mg/kg/injection, schedule: Q01DX001 (ip), vehicle: saline with Tween-80) 0 of 6.

Consider `N#CC(c1c[nH]c2ccccc12)N1CCOCC1` (stereo not drawn), for which the survivor count was 0 of 3 (dose: 100.0 mg/kg/injection, schedule: Q04DX002 (ip), vehicle: saline with Tween-80); 0 of 3 (dose: 200.0 mg/kg/injection, schedule: Q04DX002 (ip), vehicle: saline with Tween-80); 0 of 3 (dose: 400.0 mg/kg/injection, schedule: Q04DX002 (ip), vehicle: saline with Tween-80).

Consider `BrC1CCCCC1Br` (stereo not drawn), for which, under setting [1], the survivor count is 2 of 4.

For the molecule `Cc1ccc(S)c(C)c1`, the survivor count under setting [4] is reported as 0 of 6.

For the molecule `Cc1cc(C(=O)O)cc(C)c1NC(=O)N(CCCl)N=O`, the T/C reads like this: (dose: 8.0 mg/kg/injection, schedule: Q01DX001 (ip), vehicle: other) 141 % of control; (dose: 16.0 mg/kg/injection, schedule: Q01DX001 (ip), vehicle: other) 147 % of control; (dose: 23.0 mg/kg/injection, schedule: Q01DX001 (ip), vehicle: other) 147 % of control; (dose: 31.0 mg/kg/injection, schedule: Q01DX001 (ip), vehicle: other) 143 % of control. Further, the survivor count is, setting by setting: (dose: 93.0 mg/kg/injection, schedule: Q01DX001 (ip), vehicle: other) 4 of 6; (dose: 125.0 mg/kg/injection, schedule: Q01DX001 (ip), vehicle: other) 5 of 6; (dose: 187.0 mg/kg/injection, schedule: Q01DX001 (ip), vehicle: other) 2 of 6; (dose: 250.0 mg/kg/injection, schedule: Q01DX001 (ip), vehicle: other) 0 of 6; (dose: 375.0 mg/kg/injection, schedule: Q01DX001 (ip), vehicle: other) 0 of 6; (dose: 500.0 mg/kg/injection, schedule: Q01DX001 (ip), vehicle: other) 0 of 6.

`C[C@@H]1C[C@@]2(C)[C@@H](CC[C@@H]3[C@@H]2CC[C@]2(C)[C@@H](OC4CCCCO4)CC[C@@H]32)CC1=O` (stereo partly drawn): the survivor count (dose: 200.0 mg/kg/injection, schedule: Q01DX001 (ip), vehicle: carboxymethylcellulose (CMC)) is on record as 4 of 4.

For the molecule `CN(C)CCC(=O)c1cccc([N+](=O)[O-])c1`, the survivor count is, setting by setting: (dose: 150.0 mg/kg/injection, schedule: Q01DX001 (ip), vehicle: other) 0 of 7; under setting [5], 0 of 7.

On to `Cc1cc(C)c(C)c(NC(=O)NCCCl)c1C`, for which the survivor count under setting [7] was 3 of 6.

Consider `CC(=O)NC1CCC(C)CC1` (stereo not drawn), for which the survivor count is on record as 1 of 6 under setting [8] and 0 of 6 under setting [7].

In the case of `COc1cc(NC(=O)N(CCCl)N=O)cc(OC)c1OC`, the T/C reads like this: (dose: 3.3 mg/kg/injection, schedule: Q01DX009 (ip), vehicle: saline with Tween-80) 126 % of control; (dose: 5.0 mg/kg/injection, schedule: Q01DX009 (ip), vehicle: saline with Tween-80) 135 % of control; (dose: 7.0 mg/kg/injection, schedule: Q01DX009 (ip), vehicle: saline with Tween-80) 141 % of control; (dose: 16.6 mg/kg/injection, schedule: Q01DX001 (ip), vehicle: saline) 145 % of control. Also, the survivor count (dose: 150.0 mg/kg/injection, schedule: Q01DX001 (ip), vehicle: carboxymethylcellulose (CMC)) was 3 of 6 and the survivor count (dose: 300.0 mg/kg/injection, schedule: Q01DX001 (ip), vehicle: carboxymethylcellulose (CMC)) is 0 of 6.

As to `CCCCNC(=O)C1CC2c3c(Br)ccc4c3C(CC2N(C)C1)CN4C(C)=O` (stereo not drawn), the survivor count was 0 of 6 (dose: 40.0 mg/kg/injection, schedule: Q01DX001 (ip), vehicle: Klucel (hydroxypropylcellulose) (HPC)); 1 of 6 (dose: 80.0 mg/kg/injection, schedule: Q01DX001 (ip), vehicle: Klucel (hydroxypropylcellulose) (HPC)); 0 of 6 (dose: 100.0 mg/kg/injection, schedule: Q01DX001 (ip), vehicle: Klucel (hydroxypropylcellulose) (HPC)); 0 of 6 under setting [8]; 0 of 6 under setting [7].

Consider `Nc1csc2cccc[n+]12`, for which the survivor count (dose: 50.0 mg/kg/injection, schedule: Q04DX003 (ip), vehicle: saline) is on record as 6 of 6; the survivor count (dose: 150.0 mg/kg/injection, schedule: Q04DX003 (ip), vehicle: saline) is 5 of 6; the survivor count (dose: 200.0 mg/kg/injection, schedule: Q01DX001 (ip), vehicle: saline) is given as 0 of 6; the survivor count (dose: 225.0 mg/kg/injection, schedule: Q04DX003 (ip), vehicle: saline) is given as 0 of 6; the survivor count (dose: 335.0 mg/kg/injection, schedule: Q04DX003 (ip), vehicle: saline) is on record as 0 of 6; the survivor count under setting [1] is 0 of 6.
